Experimental data: patent US20150218599A1, “METHODS FOR PRODUCTION OF ALCOHOLS FROM CARBOXYLIC ACIDS VIA FERMENTATION” (Cornell University, priority 2012, published 2015)
Values joined by “and” are separate entries in the source; they are usually repeats but may differ in a detail not shown here. Identical values can stand only once.

System: C. ragsdalei P11
Experiment: Carboxylic acid reduction in batch cultures with constant syngas supply
Type: cell-based, Clostridium ragsdalei
Conditions: 15 mM carboxylic acid
Protocol: All chemicals were purchased from Sigma-Aldrich, St. Louis, Mo., unless stated otherwise. Bacterial strain and growth conditions. Most experiments were conducted with C. ljungdahlii ERI-2 (ATTC 55380), which has been used successfully for syngas to ethanol fermentation. Some experiments were repeated with C. ragsdalei P11 (ATTC BAA-622). Bacteria were grown anaerobically at 35° C. in medium designed for efficient syngas fermentation. This medium is mostly based on ATCC medium 1754 but contains higher concentrations of the macronutrient elements. The yeast extract concentration was 0.5 g/L or 0.0 g/L as indicated for each experiment; the concentration of MES (2-(N-morpholino)ethanesulfonic acid) was 150 mM; carboxylic acids (propionic, n-butyric, isobutyric, n-valeric or n-caproic acid) were added to final concentrations of 15 mM before adjustment of the pH to 5.5. The syngas atmosphere was a synthetic blend of 60% [vol/vol]carbon monoxide, 35% hydrogen, and 5% carbon dioxide (Airgas East, Ithaca, N.Y.). Precultures of C. ljungdahlii or C. ragsdalei were grown in 250 ml serum bottles containing 20 ml medium with 0.5 g/L or 0.0 g/L yeast extract (the latter for inoculation of experiments with no yeast extract) and syngas in the headspace at a pressure of 28 psi with finite amounts of syngas. Precultures were maintained in an active state by weekly transfer of 2% into a fresh serum bottle with a headspace of finite syngas.
Experimental setup. The experiments to determine the ability of C. ljungdahlii to reduce propionic acid, n-butyric acid, n-valeric acid, n-caproic acid, or isobutyric acid (2-methyl propionic acid) to the corresponding alcohols were performed in triplicate in 250 ml rubber-stoppered Pyrex glass bottles (Fisher Scientific, Pittsburgh, Pa.), which were used as batch systems in regards to the growth medium, but with constant syngas supply (FIG. 1A). Three stainless steel needles of different length (21 gauge, Becton Dickinson Franklin Lakes, N.J., and ColeParmer, Vernon Hills, Ill.) were punched through each rubber stopper as gas supply, vent, and sample ports. The reactors were filled with 220 mL medium containing 0.5 g/L yeast extract and one of each carboxylic acids at a concentration of 15 mM, autoclaved, and then equipped with fermentation airlocks (www.winemakingsuperstore.com) filled with 5% sulfuric acid to prevent contamination by other microbes or oxygen, and placed in a temperature-controlled recirculating water bath for mechanical agitation using a 15 multi-position IKA magnetic stirrer (Cole-Parmer Vernon Hills, Ill. 60061 USA). […]
Analytical procedures. Cell dry weight concentration in the cultures was determined through measurement of the optical density with a Milton Roy Spectronic 1201 spectrophotometer at a wavelength of 600 nm after determining a correlation coefficient of 242 mg dry weight/(L*OD600nm). The carbon content was calculated using the universal proportion of elements in microbial biomass (C5H7O2N). A gas chromatography system (HP 5890, Hewlett Packard, Palo Alto, Calif.), which was equipped with a 7673 autoinjector and flame ionization detector, was used for the quantification of carboxylic acids and alcohols. […]

CCCC(=O)O [n-butyric acid]
alcohol from carboxylic acid produced at end of experiment: 4.81 mM and 4.81 ± 1.55 mM | consumed carboxylic acid: 6.85 ± 1.23 mM | final acetic acid produced at end of experiment: 64.13 ± 11.64 mM | final ethanol produced at end of experiment: 24.87 ± 9.75 mM | final pH (start pH 5.5): 4.83 ± 0.10
